Substitutions are numbered along the chain they refer to. Names may count otherwise. Results are given in words; binding and its absence hold for the method and conditions named. Some entries that bind do so weakly or less than the wild type.
B1: HVEM011 (antibody, human IgG4 S228P, kappa, V domains shown)
VH: EVQLLESGGGLVQPGGSLRLSCAASEFTFSSYAMHWVRQAPGKGLEWVSSITSASSYIDYADSVKGRFTISRDNSKNTLYLQMNSLRAEDTAVYYCARGTRGLFDHWGQGTLVTVSS
VL: EIVLTQSPGTLSLSPGERATLSCRASRSVGKYLAWYQQKPGQAPRLLIYLGSNRASGIPDRFSGSGSGTDFTLTISRLEPEDFAVYYCQQYGSSPPITFGQGTKVEIKR
notes: Full-size human IgG4 (S228P) kappa antibody made in ExpiCHO-S; human IL-2 signal peptide is cleaved and left out; also called HVEM011 antibody
B2: HVEM004 (antibody, human IgG4 S228P, kappa, V domains shown)
VH: EVQLLESGGGLVQPGGSLRLSCAASGFTFSSYAMSWVRQAPGKGLEWVSSISGSGGKTYYADSVRGRFTISRDNSKNTLYLQMNSLRAEDTAVYYCAKGVGYTTSGRFDYWGQGTLVTVSS
VL: B1 VL with V29I, G30S, K31S, L50G, G51V, N53T, S56T, S94W, I97F
B3: HVEM017 (antibody, human IgG4 S228P, kappa, V domains shown)
VH: EVQLLESGGGLVQPGGSLRLSCAASGFTFSTNYMSWVRQAPGKGLEWVSLISYSGSNKYYADSVKGRFTISHDNSKNTLYLQMNSLRAEDTAVYYCARGRGNTISGTFDLWGQGTLVTVSS
VL: B1 VL with L50S, G51A, N53T, R54L, A55S
notes: also called HVEM0017
B4: HVEM018 (antibody, human IgG4 S228P, kappa, V domains shown)
VH: EVQLLESGGGLVQPGGSLRLSCAASGFTFSSYSMNWVRQAPGKGLEWVSAISGSGGGTYSADSVKGRFTISRDNSKNTLYLQMNSLRAEDTAVYYCARGKAYGYFDYWGQGTLVTVSS
VL: B1 VL with L50A, G51A, N53T, R54L, A55Q, I97V, T98I
B5: HVEM030 (antibody, human IgG4 S228P, kappa, V domains shown)
VH: EVQLLESGGGLVQPGGSLRLSCAASGFTFSGYYWTWVRQAPGKGLEWVSTISASGDSTYYADSVKGRFTISRDNSKNTLYLQMNSLRAEDTAVYYCAHDRTFGYFDYWGQGTLVTVSS
VL: B1 VL with L50A, G51A, N53S, R54L, A55Q
B6: HVEM032 (antibody, human IgG4 S228P, kappa, V domains shown)
VH: EVQLLESGGGLVQPGGSLRLSCAASGFTFSNYAIHWVRQAPGKGLEWVSTISSPGSTINYADSVKGRFTISRDNSKNTLYLQMNSLRAEDTAVYYCASGYLYPAMDVWGQGTLVTVSS
VL: B1 VL with A34S, L50G, G51A, N53K, R54L, A55Q, S94W, I97F
B7: HVEM039 (antibody, human IgG4 S228P, kappa, V domains shown)
VH: EVQLLESGGGLVQPGGSLRLSCAASGFTFSSYGMNWVRQAPGKGLEWVSIINPSGDTTTYAQKFQGRFTISRDNSKNTLYLQMNSLRAEDTAVYYCARGRGAFDYWGQGTLVTVSS
VL: B1 VL with L50G, G51A, S52T, N53S, S56T, I97V

Sequences of proteins named here, by UniProt entry; tags and fusion partners are left off. A change or cut given only in a name is not applied to a line headed by its entry.
UniProt Q92956: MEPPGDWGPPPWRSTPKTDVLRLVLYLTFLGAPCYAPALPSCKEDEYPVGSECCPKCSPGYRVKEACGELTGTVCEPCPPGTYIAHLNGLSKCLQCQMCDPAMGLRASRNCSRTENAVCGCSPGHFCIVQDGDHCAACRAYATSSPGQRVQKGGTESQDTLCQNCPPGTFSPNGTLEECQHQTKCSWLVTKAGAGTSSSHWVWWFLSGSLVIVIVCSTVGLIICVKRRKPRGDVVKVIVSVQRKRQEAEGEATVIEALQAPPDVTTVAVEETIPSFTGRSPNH

molecular target: HVEM protein stably expressed in Jurkat-Lucia NFAT cells (Homo sapiens (Human)) (UniProt Q92956); assay: flow cytometry: human LIGHT 0.25 ug/ml on HVEM-expressing Jurkat cells with antibody 10 or 100 nM, anti-His-APC; ligand LIGHT

binding, binds:
B1
B2
B3
B4
B5
B6
B7

Reference: US20240034800A1 (MEDYTOX, published 2024)
